Experimental data from patent publication US20260201032A1 (UNIVERSITAT DE BARCELONA, published 2026).
Results are given in words; binding and its absence hold for the method and conditions named. Some binding calls cover weakened binding; strength is not graded here.

Chains of the proteins cited; added tags and fusions are not shown. Lines headed by an entry give the natural chain unless they say otherwise; changes in a name come on top.
UniProt Q01965: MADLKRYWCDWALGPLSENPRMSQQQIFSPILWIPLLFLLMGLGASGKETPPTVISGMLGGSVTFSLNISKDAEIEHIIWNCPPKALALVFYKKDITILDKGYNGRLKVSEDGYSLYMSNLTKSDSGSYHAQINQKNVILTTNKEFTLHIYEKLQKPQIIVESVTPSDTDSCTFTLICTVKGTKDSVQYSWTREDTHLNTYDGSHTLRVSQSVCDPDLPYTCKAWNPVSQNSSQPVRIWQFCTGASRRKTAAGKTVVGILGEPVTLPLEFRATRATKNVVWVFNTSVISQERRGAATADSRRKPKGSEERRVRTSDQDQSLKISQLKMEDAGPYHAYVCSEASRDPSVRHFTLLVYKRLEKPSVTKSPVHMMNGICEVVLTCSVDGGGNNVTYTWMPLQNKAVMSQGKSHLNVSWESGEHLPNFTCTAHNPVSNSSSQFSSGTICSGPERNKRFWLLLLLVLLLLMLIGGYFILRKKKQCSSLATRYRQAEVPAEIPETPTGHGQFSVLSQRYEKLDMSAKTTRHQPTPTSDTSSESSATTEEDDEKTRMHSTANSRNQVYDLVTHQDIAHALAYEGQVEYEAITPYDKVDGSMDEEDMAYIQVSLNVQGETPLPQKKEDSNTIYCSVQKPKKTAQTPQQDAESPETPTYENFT

Target: T1, CD229 hDI/DII mDIII/DIV (human; mouse) (UniProt Q9HBG7+Q01965)
T1 sequence (looked up): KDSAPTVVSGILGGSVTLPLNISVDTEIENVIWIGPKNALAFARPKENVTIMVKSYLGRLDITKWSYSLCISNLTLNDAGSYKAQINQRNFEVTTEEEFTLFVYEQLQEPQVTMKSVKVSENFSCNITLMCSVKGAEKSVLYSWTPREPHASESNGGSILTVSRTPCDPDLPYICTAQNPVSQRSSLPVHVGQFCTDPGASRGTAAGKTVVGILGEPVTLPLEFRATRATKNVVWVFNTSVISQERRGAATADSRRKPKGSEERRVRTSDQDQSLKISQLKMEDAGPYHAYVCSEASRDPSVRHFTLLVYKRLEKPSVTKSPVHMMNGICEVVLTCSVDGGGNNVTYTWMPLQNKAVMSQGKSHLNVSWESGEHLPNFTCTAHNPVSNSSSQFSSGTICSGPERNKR
Assay: flow cytometry on transiently transfected COS cells

B1: HLy9.1.84 (antibody, V domains shown)
VH: QMQLQESGPELVKPGASVKISCKASGYTFTHYYINWVQQRPGQGLEWIGWIFPESGSTYYSEKFKAKATLTVDKSSSTAYMLLSSLTSEDSAVYFCARGTGFFDYWGQGTTLTVSS
VL: QIVLTQSPAIMSASPGEKVTVTCSASSSVSYMFWYQQKPGFSPRLLIYDTSNLASGVPVRFSGSGSGTSYSLTISRMEAEDAATYYCQQWSSYPPTFGGGTKLEIK
notes: also called HLy91.184
  binding: binds
